Results are given in words; binding and its absence hold for the method and conditions named. In cells and extracts the contact can be indirect. Binding can be weak; no strength is given. Sequences can lack the tags named with a protein.
Target: T1, Flag tagged PA0034 (two-component response regulator) (Pseudomonas aeruginosa PAO1) (UniProt P24908)
T1 sequence: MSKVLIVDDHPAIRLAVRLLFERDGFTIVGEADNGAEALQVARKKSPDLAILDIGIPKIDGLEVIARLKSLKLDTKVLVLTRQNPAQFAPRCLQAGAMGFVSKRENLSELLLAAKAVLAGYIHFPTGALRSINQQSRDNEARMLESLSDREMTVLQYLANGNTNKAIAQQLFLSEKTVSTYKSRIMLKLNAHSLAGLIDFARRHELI
Test: co-IP; co-IP of flag-PA0034 and HA-LadS, detected by western blotting; which of the two was precipitated is not told

Protein sequences, listed by entry. Tags and fused reporters are not part of them. Lines headed by an entry give the natural chain unless they say otherwise; changes in a name come on top.
UniProt Q9HX42: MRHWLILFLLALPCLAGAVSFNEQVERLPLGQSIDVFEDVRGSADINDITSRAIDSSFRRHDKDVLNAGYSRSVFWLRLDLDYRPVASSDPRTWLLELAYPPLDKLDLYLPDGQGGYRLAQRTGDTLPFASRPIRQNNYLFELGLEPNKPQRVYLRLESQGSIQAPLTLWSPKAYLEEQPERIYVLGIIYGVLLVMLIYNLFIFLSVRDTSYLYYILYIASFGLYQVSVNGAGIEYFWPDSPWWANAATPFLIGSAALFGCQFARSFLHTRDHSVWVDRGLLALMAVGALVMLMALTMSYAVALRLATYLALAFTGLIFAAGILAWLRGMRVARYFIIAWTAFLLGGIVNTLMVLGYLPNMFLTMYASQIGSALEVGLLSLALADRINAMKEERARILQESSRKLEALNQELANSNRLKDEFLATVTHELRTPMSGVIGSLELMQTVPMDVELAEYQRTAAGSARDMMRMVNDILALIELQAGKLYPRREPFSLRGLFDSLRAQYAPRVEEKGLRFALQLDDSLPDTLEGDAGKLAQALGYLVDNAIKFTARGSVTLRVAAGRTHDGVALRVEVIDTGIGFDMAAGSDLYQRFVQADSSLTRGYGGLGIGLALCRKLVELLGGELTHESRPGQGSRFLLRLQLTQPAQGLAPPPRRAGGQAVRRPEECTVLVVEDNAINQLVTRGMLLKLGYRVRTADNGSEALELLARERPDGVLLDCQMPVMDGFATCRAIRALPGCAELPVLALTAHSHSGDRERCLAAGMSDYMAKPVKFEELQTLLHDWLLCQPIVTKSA

HA-LadS (from UniProt Q9HX42) (enzyme)
binding: binds

Source: PMC11237798
